Primary screen of a compound library

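Assay of Toxoplasma gondii numbers, read through their beta-galactosidase reporter with a colour substrate. Concentration: 50 µM. The record gives no direction; the compounds picked for IC50 retests had high values, so higher reads as fewer parasites. Of about 18,000 compounds tested this way, about 170 (0.94%) reached 50% or more in at least one test.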

Each number is a percent effect as filed.
The controls that fix the scale are not given in the record; negative values are as filed.
Compounds were drawn at random from those tested, without regard to their results.

| SMILES | effect |
|---|---|
| `N[C@@H]1CCO[C@H]1c1ccc(=O)[nH]c1` | -16.55% |
| `CCOC(=O)N1CCN(C(=O)C(C)CC)CC1` (stereo not given) | 3.789% |
| `CCc1cnc(NCCCN2CCN(C)CC2)nc1` | -16.04% |
| `NC(=O)CC1CCCCN1Cc1cccc(O)c1` (stereo not given) | 2.531% |
| `N[C@@H]1CC[C@@H]1NC(=O)c1ccc(Cn2cnnn2)cc1` | -6.911% |
| `Cn1cc(NC(=O)CC(C)(C)C)cn1` | 1.42% |
| `Cn1cc(C(=O)NCC(=O)Nc2ccccc2Br)cn1` | -1.313% |
| `CC(C)CNC(=O)c1[nH]cnc1C(=O)N1CCCCC1` | -8.98% |
| `CC(=O)NCCNC(=O)NC(C)Cc1ccccc1Br` (stereo not given) | -12.08% |
| `CC(C)N1CCC(CN2CCN(c3nc[nH]n3)CC2)C1` (stereo not given) | -6.995% |
| `CCn1cc(NC(=O)c2ccccc2)cn1` | -2.084% |
| `CC(C(=O)NC(N)=O)N1CCN(c2cnccn2)CC1` (stereo not given) | -5.201% |
| `Cn1ccc(C(=O)N2CCCC2c2ccc[nH]2)cc1=O` (stereo not given) | -3.399% |
| `CC(C)Cc1cc(C(=O)NCCn2cnnn2)no1` | -8.406% |
| `COC1(CN)CCOCC1` | -5.501% |
| `NCC1CCOc2ccccc21` (stereo not given) | 1.688% |
| `Cc1nc(C)c(C(=O)N2CCCC3(CCOC3)C2)s1` (stereo not given) | -1.962% |
| `OCCCNC(c1ccccc1)c1ccccn1` (stereo not given) | 3.231% |
| `COCC(=O)N1CCN(CCC(C)C)CC1` | 7.319% |
| `Cn1cc(NC(=O)Nc2ccc(F)cc2)c(C(N)=O)n1` | -21.08% |
| `N#Cc1cccc(CNc2ccncc2F)c1` | 2.425% |
| `c1nc2c(c(N3CCOCC3)n1)CCC2` | 11.06% |
| `C[S+]([O-])c1ncn(CCC(=O)Nc2cccc(F)c2)n1` (stereo not given) | -0.1624% |
| `CCC(CO)(CO)NC(=O)c1csc(C(C)C)n1` | 21.09% |
| `COc1ccccc1CNC(=O)CC1CCS(=O)(=O)C1` (stereo not given) | 1.788% |
| `N#Cc1cccc(NC(=O)NC2CCS(=O)(=O)C2)c1` (stereo not given) | 1.062% |
| `CO[C@H]1CNCC1NC(=O)c1cc2ccccc2n1C` (stereo not given in full) | 18.82% |
| `CNC(=O)C1CCCN(c2cnc3ccccc3n2)C1` (stereo not given) | 1.111% |
| `COCCNC(=O)CN1CCC2(CC1)OCCO2` | -5.56% |
| `CN(Cc1ccccc1)C(=O)CNC(=O)c1ccco1` | -3.979% |
| `COCCNCCNC(=O)C1CSc2ccccc21` (stereo not given) | 0.6689% |
| `CCOc1ccc2nnnn2n1` | -37.88% |
| `O=C(CCN1CCC(O)CC1)N1CCc2ccccc21` | -2.351% |
| `Cc1ncn(CC(=O)N2CCCC(O)(CO)CC2)c1C` (stereo not given) | -4.566% |
| `Cc1c[nH]c(C(C)NC(=O)Cc2cccc(F)c2F)n1` (stereo not given) | -15.84% |
| `c1csc(C2CCNCC2)n1` | -33.16% |
| `COCc1noc(-c2cc(S(N)(=O)=O)cc(C)c2C)n1` | -24.54% |
| `CCN(CCN(C)C)C(=O)c1cccn1C1CC1` | 2.797% |
| `Cc1cccc2nc(CN(C)C(=O)CN(C)C)[nH]c12` | -1.645% |
| `OCCn1nc(C2CCCC2)nc1C1CCOC1` (stereo not given) | 1.452% |
| `CC(NC(=O)c1sccc1C1CC1)C(N)=O` (stereo not given) | -6.617% |
| `Cc1cc(C(=O)NCCCOCC2CCOC2)c(C)o1` (stereo not given) | 4.38% |
| `COc1cc(C(=O)NCC(=O)c2ccco2)ccc1F` | 13.36% |
| `CCNC(=O)c1ccc(CN)cc1` | 2.879% |
| `NCC(CO)Cc1cc(F)ccc1F` (stereo not given) | -6.807% |
| `CNCC1CCS(=O)(=O)C1` (stereo not given) | 7.416% |
| `O=C(Cc1ccccc1O)NCC1(O)CCC1` | -6.441% |
| `COc1ccc(-c2cc(NCCO)nc(N)n2)cc1C` | 29.21% |
| `COc1cc(Br)ccc1CCCNC(=O)C(C)O` (stereo not given) | 0.2477% |
| `Cc1cc(Cl)ccc1NC(=O)CN1CCS(=O)(=O)CC1` | 9.326% |
| `Cc1nc(CSCC(=O)N2CCCC2)cs1` | 9.444% |
| `OCCC1CCN(Cc2ccccc2)C1` (stereo not given) | 15.63% |
| `CNC(=O)CCN1CCC(=Cc2ccccc2)CC1` | 7.827% |
| `O=C(NCCc1ccc(F)cc1)C1CNCCO1` (stereo not given) | 5.208% |
| `O=C(Cc1cccs1)Nc1ncccn1` | -0.9336% |
| `O=c1c(C(F)(F)F)cccn1Cc1cccnc1` | -9.486% |
| `CCCNC(=O)C(C)NC(=O)c1ccoc1` (stereo not given) | -4.269% |
| `CC(c1nc(C2CC2)no1)N1CCn2ccnc2C1` (stereo not given) | 2.925% |
| `CCN1CCN(c2ccc(C#N)cn2)CC1` | -5.244% |
| `CC(=O)N(C)C1CCN(C(=O)CCC(C)C)CC1` | 1.156% |
| `NCc1cnn(-c2ccc(F)cc2)c1` | 4.484% |
| `OC(CN1CCn2ccnc2C1)c1ccc(F)cc1` (stereo not given) | -4.239% |
| `CCn1cc(NC(=O)NCCN(C)CCOC)cn1` | 11.29% |
| `CNC(=O)NC(=O)CCSc1nnc2n1CCCCC2` | -18.65% |
| `Cc1cccc(C2CCCN2)n1` (stereo not given) | -3.572% |

7 of the entries, repeated:

- CC(C)N1CCC(CN2CCN(c3nc[nH]n3)CC2)C1 (stereo not given) : -6.995%
- CC(C)Cc1cc(C(=O)NCCn2cnnn2)no1 : -8.406%
- Cc1cc(Cl)ccc1NC(=O)CN1CCS(=O)(=O)CC1 : 9.326%
- COCc1noc(-c2cc(S(N)(=O)=O)cc(C)c2C)n1 : -24.54%
- CCc1cnc(NCCCN2CCN(C)CC2)nc1 : -16.04%
- N#Cc1cccc(NC(=O)NC2CCS(=O)(=O)C2)c1 (stereo not given) : 1.062%
- COCCNCCNC(=O)C1CSc2ccccc21 (stereo not given) : 0.6689%

From ChEMBL document CHEMBL3988442, “University of Dundee, Small-Polar-MMV Screening Library” (2021).